Results are given in words; binding and its absence hold for the method and conditions named. For some assays here: Binding can be weak; no strength is given.

Test [1] has as its target murine beta-DG extracellular domain (mbeta-DG ECD) (mouse). The experiment in a line: sequential SPR (Biacore), antibody on chip. In general terms: In SPR one partner is held on a chip, and binding of the other changes the refractive index at the surface.
Test [2] shares this target. Kind of test: dot blot.
Test [3] addresses beta-DG (species not told at the place). Kind of test: ELISA on beta-DG coat with blood samples of dosed mice. (In general: ELISA stands for enzyme-linked immunosorbent assay.)
The target is the same in test [4]. The experiment in a line: phage ELISA of phage display clones.

B1: bispecific antibody C5C6, anti-beta-DG(AS30) x anti-laminin-2(C3), CODV with 10-10-0-0 linker (bispecific antibody, not shown: a dimerising Fc or GST)
heavy: QIQLQQSGPELVKPGASVKMSCEASGFTFTDSVITWVKQRPGQGLEWIGEIYPGSGNFYYNEKFKGKATLTADKSSNTAYMQLRSLTSEDSAVYFCAMRRSSWGQGTLVTVSADVMLVESGGDLVKPGGSLKLSCAASGFTFSSYTMSWVRQTPEKRLEWVASISSGGGNTYYPDSVKGRFTISRDNAKNNLYLQMSSLRSEDTALYYCARFDYGSSLDSWGQGTTLTVSS
light: DIVLTQSPATLSVTPGDSVSLSCRASQSISNNLHWYQQKSHESPRLLIKYASQSISGIPSRFSGSGSGTDFTLSINSVETEDFGMYFCQQSKNWPRTFGGGTKLEIKGGSGSSGSGGDVLMTQTPLSLPVSLGDQASISCRSSQTIVHSNSKTYLEWYLQKPGQSPKLLIYKVSNRFSGVPDRFSGSGSGTDFTLKISRVEAEDLGVYYCFQGSHVPLTFGAGTKLELKGGSGSSGSGG
Take B1: the binding result in test [1] is “binds”.

B2: anti-beta-DG antibody derived from hybridoma clone AS30 (antibody, V domains shown)
VH: QIQLQQSGPELVKPGASVKMSCEASGFTFTDSVITWVKQRPGQGLEWIGEIYPGSGNFYYNEKFKGKATLTADKSSNTAYMQLRSLTSEDSAVYFCAMRRSSWGQGTLVTVSA
VL: DVLMTQTPLSLPVSLGDQASISCRSSQTIVHSNSKTYLEWYLQKPGQSPKLLIYKVSNRFSGVPDRFSGSGSGTDFTLKISRVEAEDLGVYYCFQGSHVPLTFGAGTKLELK
As to B2, the binding result in test [2] is reported as “binds”.

B3: anti-beta-DG antibody derived from hybridoma clone AS19 (antibody, V domains shown)
VH: QVQLQQSGPELVKPGASVKMSCKASGFTFTDSVISWVKQRTGQGLEWIGEIYPGSGSIYYNEKFKGKATLTADKSSNTAYMQLRSLTSEDSAVYFCAMRRSYWGQGTLVTVSA
VL: DVLMTQTPLSLPVSLGDQASISCRSSQSIVHSNGNTYLEWYLQKPGQSPKLLIYKVSNRFSGVPDRFSGSGSGTDFTLKISRVEAEDLGVYYCFQGSHVPLTFGAGTKLELK
B3: the binding result in test [2] and in test [1] was “binds” throughout.

B4: anti-laminin-2 antibody derived from hybridoma clone C3 (antibody, V domains shown)
VH: DVMLVESGGDLVKPGGSLKLSCAASGFTFSSYTMSWVRQTPEKRLEWVASISSGGGNTYYPDSVKGRFTISRDNAKNNLYLQMSSLRSEDTALYYCARFDYGSSLDSWGQGTTLTVSS
VL: DIVLTQSPATLSVTPGDSVSLSCRASQSISNNLHWYQQKSHESPRLLIKYASQSISGIPSRFSGSGSGTDFTLSINSVETEDFGMYFCQQSKNWPRTFGGGTKLEIK
As to B4, the binding result in test [3] is listed as “no binding”.

B5: anti-beta-DG antibody phage display clone B04 (antibody, V domains shown)
VH: QVQLQQSGGGLVQPGGSLRLSCAASGFTFSSYAMSWVRQAPGKGLEWVSAISGSGGSTYYADSVKGRFTVSRDNSKNTLYLQMNSLRAEDTAVYYCARLGYCSSTSCYLSAFDIWGQGTMVTVSS
VL: EIVLTQSPSTLSASVGDRVTITCRASQSISSWLAWYQQKPGKAPKLLIYDASSLESGVPSRFSGSGSGTEFTLTISSLQPDDFATYYCQQYNSYPLTFGGGTKVEIK
B5: the binding result in test [4] is “binds”.

B6: bispecific antibody T1T2, anti-beta-DG(AS19) x anti-laminin-2(C3), TBTI with (GGGGS)2 linker (bispecific antibody, not shown: a dimerising Fc or GST)
heavy: QVQLQQSGPELVKPGASVKMSCKASGFTFTDSVISWVKQRTGQGLEWIGEIYPGSGSIYYNEKFKGKATLTADKSSNTAYMQLRSLTSEDSAVYFCAMRRSYWGQGTLVTVSAGGGGSGGGGSDVMLVESGGDLVKPGGSLKLSCAASGFTFSSYTMSWVRQTPEKRLEWVASISSGGGNTYYPDSVKGRFTISRDNAKNNLYLQMSSLRSEDTALYYCARFDYGSSLDSWGQGTTLTVSS
light: DVLMTQTPLSLPVSLGDQASISCRSSQSIVHSNGNTYLEWYLQKPGQSPKLLIYKVSNRFSGVPDRFSGSGSGTDFTLKISRVEAEDLGVYYCFQGSHVPLTFGAGTKLELKGGGGSGGGGSDIVLTQSPATLSVTPGDSVSLSCRASQSISNNLHWYQQKSHESPRLLIKYASQSISGIPSRFSGSGSGTDFTLSINSVETEDFGMYFCQQSKNWPRTFGGGTKLEIK
Take B6: the binding result in test [1] is reported as “binds”.

B7: bispecific antibody T5T6, anti-beta-DG(AS30) x anti-laminin-2(C3), TBTI with (GGGGS)2 linker (bispecific antibody, not shown: a dimerising Fc or GST)
heavy: QIQLQQSGPELVKPGASVKMSCEASGFTFTDSVITWVKQRPGQGLEWIGEIYPGSGNFYYNEKFKGKATLTADKSSNTAYMQLRSLTSEDSAVYFCAMRRSSWGQGTLVTVSAGGGGSGGGGSDVMLVESGGDLVKPGGSLKLSCAASGFTFSSYTMSWVRQTPEKRLEWVASISSGGGNTYYPDSVKGRFTISRDNAKNNLYLQMSSLRSEDTALYYCARFDYGSSLDSWGQGTTLTVSS
light: DVLMTQTPLSLPVSLGDQASISCRSSQTIVHSNSKTYLEWYLQKPGQSPKLLIYKVSNRFSGVPDRFSGSGSGTDFTLKISRVEAEDLGVYYCFQGSHVPLTFGAGTKLELKGGGGSGGGGSDIVLTQSPATLSVTPGDSVSLSCRASQSISNNLHWYQQKSHESPRLLIKYASQSISGIPSRFSGSGSGTDFTLSINSVETEDFGMYFCQQSKNWPRTFGGGTKLEIK
On to B7, for which the binding entry in test [1] was “binds”.

The values above are taken from patent publication EP4659808A2.
